Experimental data: the supplement of paper PMC11006884
Only a part is listed here, and it is no random draw.

Protein sequences, listed by entry. Tags and fused reporters are not part of them. Lines headed by an entry give the natural chain unless they say otherwise; changes in a name come on top.
UniProt O15320, whole entry, looked up: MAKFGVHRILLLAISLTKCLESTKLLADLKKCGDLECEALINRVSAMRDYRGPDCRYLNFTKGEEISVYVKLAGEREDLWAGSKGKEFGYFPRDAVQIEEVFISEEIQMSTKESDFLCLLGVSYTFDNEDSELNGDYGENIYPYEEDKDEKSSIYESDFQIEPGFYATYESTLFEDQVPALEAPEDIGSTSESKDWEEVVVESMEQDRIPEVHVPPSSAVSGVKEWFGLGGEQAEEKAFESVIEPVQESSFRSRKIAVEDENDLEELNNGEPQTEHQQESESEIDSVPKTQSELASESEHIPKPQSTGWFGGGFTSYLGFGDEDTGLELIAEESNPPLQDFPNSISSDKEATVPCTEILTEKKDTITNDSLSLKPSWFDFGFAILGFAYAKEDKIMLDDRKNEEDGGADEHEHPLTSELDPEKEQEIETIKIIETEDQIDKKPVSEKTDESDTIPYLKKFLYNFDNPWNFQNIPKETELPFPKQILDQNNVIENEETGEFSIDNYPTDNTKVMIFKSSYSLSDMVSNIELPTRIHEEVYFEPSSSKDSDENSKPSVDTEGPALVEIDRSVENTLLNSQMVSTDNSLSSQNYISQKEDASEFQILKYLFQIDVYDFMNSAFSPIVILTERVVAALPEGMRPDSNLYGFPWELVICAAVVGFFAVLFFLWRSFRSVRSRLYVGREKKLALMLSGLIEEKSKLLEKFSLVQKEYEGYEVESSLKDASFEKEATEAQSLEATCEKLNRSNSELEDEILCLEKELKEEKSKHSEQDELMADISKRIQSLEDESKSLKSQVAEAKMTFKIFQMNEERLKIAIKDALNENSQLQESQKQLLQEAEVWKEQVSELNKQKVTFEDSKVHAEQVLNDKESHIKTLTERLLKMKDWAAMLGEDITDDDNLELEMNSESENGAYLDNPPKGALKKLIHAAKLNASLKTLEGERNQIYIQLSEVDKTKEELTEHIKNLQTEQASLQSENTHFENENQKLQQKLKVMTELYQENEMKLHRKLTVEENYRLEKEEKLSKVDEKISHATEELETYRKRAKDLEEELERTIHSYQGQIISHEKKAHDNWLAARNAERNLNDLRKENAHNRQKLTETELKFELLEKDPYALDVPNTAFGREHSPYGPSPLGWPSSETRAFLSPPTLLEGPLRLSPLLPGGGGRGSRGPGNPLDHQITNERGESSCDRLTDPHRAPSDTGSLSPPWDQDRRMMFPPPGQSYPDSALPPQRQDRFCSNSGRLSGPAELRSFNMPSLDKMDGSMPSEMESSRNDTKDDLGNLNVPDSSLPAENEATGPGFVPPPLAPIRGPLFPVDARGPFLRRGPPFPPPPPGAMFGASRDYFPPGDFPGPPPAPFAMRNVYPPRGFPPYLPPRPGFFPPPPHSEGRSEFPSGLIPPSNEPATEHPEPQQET
UniProt O00411: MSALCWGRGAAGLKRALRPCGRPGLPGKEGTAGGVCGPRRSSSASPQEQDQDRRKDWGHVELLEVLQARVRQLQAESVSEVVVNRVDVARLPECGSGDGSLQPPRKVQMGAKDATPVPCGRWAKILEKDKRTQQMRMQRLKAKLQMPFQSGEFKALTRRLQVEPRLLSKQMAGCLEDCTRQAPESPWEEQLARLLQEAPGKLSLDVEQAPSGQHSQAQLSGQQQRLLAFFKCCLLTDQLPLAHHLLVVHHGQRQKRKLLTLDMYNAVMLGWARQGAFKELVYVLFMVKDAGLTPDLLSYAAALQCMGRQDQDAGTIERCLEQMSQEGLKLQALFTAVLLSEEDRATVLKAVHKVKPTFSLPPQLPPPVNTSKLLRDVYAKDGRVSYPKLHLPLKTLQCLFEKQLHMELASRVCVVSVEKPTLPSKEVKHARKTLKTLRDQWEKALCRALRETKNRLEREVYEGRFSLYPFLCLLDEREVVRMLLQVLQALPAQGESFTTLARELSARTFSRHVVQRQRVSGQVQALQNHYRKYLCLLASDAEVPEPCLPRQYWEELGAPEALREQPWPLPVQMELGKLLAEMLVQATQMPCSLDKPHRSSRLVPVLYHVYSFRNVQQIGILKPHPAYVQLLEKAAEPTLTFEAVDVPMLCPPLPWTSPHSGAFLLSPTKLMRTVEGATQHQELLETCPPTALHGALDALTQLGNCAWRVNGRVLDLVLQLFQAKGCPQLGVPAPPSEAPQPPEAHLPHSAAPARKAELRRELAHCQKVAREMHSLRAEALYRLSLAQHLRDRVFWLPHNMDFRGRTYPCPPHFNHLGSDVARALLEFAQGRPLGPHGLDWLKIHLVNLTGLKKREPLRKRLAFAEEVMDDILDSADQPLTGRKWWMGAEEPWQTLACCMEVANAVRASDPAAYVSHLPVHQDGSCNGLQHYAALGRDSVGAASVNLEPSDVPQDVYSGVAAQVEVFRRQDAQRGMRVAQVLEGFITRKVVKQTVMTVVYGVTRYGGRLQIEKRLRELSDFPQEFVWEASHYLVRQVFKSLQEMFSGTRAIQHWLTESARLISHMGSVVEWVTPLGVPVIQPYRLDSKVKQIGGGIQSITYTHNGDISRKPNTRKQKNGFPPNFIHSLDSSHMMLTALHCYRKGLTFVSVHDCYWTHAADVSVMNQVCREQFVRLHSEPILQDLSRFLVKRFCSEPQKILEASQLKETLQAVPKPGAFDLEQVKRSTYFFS
UniProt O14519: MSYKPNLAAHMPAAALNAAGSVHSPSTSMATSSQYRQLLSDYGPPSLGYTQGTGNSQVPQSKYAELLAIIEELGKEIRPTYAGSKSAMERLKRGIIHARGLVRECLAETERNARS
UniProt O15164: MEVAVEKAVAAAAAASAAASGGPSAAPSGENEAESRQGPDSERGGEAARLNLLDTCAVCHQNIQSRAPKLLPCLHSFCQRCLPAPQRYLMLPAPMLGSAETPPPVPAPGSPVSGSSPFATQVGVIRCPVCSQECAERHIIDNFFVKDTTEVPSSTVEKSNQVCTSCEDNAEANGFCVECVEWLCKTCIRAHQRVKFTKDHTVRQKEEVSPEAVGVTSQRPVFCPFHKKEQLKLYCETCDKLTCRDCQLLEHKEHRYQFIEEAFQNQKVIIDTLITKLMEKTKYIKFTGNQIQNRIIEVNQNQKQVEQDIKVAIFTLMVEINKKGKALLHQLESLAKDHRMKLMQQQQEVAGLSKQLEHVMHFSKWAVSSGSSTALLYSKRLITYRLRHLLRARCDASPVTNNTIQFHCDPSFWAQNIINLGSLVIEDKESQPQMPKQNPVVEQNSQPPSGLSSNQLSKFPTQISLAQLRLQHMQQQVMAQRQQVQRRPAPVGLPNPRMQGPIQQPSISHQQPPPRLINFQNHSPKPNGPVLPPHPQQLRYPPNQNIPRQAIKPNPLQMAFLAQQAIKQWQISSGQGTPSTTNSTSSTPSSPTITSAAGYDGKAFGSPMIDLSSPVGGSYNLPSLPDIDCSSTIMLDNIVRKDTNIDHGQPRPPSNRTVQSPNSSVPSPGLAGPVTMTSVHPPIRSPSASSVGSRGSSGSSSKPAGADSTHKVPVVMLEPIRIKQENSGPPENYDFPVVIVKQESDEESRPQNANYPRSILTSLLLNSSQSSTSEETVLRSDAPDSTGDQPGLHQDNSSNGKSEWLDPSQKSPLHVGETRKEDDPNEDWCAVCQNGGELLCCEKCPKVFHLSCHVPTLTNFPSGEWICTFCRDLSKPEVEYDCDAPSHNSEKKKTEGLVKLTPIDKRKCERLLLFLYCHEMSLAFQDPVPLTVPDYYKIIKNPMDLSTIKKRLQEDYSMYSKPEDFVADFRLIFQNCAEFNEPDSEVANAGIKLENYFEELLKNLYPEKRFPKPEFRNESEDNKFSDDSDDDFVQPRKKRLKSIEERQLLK
UniProt O15550, whole entry, looked up: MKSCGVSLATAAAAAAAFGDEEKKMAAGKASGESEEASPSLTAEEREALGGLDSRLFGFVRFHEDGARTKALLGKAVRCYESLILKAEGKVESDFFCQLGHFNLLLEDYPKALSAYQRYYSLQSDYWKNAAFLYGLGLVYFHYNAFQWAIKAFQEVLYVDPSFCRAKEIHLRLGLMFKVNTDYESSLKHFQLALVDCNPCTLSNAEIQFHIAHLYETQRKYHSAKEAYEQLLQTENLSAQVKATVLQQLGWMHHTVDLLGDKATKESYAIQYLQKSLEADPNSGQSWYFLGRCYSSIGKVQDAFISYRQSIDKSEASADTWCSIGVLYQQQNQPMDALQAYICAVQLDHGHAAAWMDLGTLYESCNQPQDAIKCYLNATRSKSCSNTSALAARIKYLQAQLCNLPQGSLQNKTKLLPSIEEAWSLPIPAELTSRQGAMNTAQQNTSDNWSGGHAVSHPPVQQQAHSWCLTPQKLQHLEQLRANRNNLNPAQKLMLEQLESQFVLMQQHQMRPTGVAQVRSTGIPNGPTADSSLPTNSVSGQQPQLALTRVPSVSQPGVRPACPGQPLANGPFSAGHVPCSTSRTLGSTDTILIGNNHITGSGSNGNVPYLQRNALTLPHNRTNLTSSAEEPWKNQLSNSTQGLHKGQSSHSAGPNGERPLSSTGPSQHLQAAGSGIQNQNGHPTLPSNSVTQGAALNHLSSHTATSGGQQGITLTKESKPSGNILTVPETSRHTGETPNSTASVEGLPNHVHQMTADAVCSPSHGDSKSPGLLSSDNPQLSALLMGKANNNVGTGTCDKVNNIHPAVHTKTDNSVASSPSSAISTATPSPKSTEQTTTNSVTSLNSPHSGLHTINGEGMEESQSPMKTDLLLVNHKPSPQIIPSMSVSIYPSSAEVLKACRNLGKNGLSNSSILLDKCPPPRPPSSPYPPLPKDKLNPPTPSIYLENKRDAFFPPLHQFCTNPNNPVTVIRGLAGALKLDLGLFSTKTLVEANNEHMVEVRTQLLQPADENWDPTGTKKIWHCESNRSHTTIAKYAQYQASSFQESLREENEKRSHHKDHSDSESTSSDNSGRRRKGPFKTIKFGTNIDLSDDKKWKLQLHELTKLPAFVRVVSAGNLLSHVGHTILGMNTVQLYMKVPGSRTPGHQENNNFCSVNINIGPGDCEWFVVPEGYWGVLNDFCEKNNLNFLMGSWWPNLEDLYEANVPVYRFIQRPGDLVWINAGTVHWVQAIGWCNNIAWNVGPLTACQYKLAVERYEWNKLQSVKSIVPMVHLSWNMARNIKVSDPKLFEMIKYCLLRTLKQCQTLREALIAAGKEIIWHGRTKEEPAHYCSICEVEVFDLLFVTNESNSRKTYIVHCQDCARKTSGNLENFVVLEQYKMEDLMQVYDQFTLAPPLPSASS
UniProt O14929: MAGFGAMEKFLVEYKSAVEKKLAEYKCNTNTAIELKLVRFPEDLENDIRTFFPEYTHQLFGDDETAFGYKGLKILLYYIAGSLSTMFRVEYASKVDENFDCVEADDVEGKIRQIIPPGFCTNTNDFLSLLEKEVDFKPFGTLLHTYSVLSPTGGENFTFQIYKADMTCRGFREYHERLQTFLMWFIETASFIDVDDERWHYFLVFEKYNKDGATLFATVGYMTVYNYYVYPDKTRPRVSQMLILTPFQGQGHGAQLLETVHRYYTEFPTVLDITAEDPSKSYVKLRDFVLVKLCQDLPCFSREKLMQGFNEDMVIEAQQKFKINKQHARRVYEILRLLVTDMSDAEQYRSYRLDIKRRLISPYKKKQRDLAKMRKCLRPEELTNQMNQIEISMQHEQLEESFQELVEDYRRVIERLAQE
UniProt O14936: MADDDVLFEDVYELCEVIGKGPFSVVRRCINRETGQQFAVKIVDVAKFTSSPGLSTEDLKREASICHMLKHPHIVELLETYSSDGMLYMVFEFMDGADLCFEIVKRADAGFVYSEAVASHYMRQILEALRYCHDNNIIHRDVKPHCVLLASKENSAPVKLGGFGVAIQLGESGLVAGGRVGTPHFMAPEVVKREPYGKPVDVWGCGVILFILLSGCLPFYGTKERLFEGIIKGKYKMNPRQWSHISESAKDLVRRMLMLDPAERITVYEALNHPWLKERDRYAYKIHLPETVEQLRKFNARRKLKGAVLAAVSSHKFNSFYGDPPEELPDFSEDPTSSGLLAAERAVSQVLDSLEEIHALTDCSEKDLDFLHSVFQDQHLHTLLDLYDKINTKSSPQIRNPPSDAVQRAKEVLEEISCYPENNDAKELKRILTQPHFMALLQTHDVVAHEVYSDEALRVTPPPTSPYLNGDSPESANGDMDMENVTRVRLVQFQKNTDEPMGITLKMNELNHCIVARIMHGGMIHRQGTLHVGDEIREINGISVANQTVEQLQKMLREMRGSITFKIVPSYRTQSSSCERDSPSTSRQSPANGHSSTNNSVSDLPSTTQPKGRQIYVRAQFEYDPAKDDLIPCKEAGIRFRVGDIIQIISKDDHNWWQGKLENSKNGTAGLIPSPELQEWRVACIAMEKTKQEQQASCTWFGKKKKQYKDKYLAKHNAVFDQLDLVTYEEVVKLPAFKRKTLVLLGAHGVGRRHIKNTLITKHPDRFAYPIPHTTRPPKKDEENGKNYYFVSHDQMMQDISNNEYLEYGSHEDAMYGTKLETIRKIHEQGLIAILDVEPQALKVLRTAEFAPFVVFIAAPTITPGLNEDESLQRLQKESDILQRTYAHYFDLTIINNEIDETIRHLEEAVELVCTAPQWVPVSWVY

Compound: COC(=O)C#Cc1ccccc1 [methyl 3-phenylpropiolate]
Assay: log2 ratio of iodoacetamide-alkyne labeling of the cysteine site, DMSO over compound (competition); higher = stronger covalent engagement of the cysteine by the compound, active = 1 or more
Settings: 500 µM; treatment time 1 h; system: HEK293T cell lysate
Outline: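 HEK293T lysate (2 mg/mL) was incubated with electrophile (500 µM) or vehicle for 1 h at ambient temperature and then with iodoacetamide alkyne for 1 h. Labelled proteins were clicked to sCIP-TMT reagents, pooled, digested, enriched on streptavidin and measured by Orbitrap Eclipse LC-MS/MS with FAIMS, with FragPipe quantification. The per-cysteine log2 competition ratio is mean control-channel reporter intensity over mean compound-channel reporter intensity. Across three replicates with duplicate channels, cysteines quantified in only one replicate were excluded.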

Target | log2 ratio of iodoacetamide-alkyne labeling
IRS4 C332 (UniProt O14654) | inactive: 0.39
DDX3X C128 (UniProt O00571) | inactive: 0.406
O15320_C147 (UniProt Q96PC5+O15320) | inactive: -0.197
POLRMT C726 (UniProt O00411) | inactive: 0.6
POLRMT C413 (UniProt O00411) | inactive: 0.16
EXOC5 C194 (UniProt O00471) | inactive: 0.167
UniProt O00148_C62 | inactive: 0.591
POLRMT C650 (UniProt O00411) | inactive: 0.197
HGS C190 (UniProt O14964) | inactive: 0.0953
CD3EAP C107 (UniProt O15446) | inactive: 0.723
PSMD11 C289 (UniProt O00231) | inactive: 0.253
CDK2AP1 C105 (UniProt O14519) | inactive: 0.0674
XPO1 C164 (UniProt O14980) | inactive: -0.00596
TRIM24 C56 (UniProt O15164) | inactive: 0.0454
UniProt O14979_C303 | inactive: 0.0868
PES1 C361 (UniProt O00541) | inactive: 0.221
KDM6A C384 (UniProt O15550) | inactive: 0.257
TRAFD1 C267 (UniProt O14545) | inactive: 0.282
DHX15 C774 (UniProt O43143) | inactive: 0.418

Seven entries from above, with tabs:
Target	log2 ratio of iodoacetamide-alkyne labeling
O15320_C147 (UniProt Q96PC5+O15320)	inactive: -0.197
POLRMT C413 (UniProt O00411)	inactive: 0.16
POLRMT C650 (UniProt O00411)	inactive: 0.197
CDK2AP1 C105 (UniProt O14519)	inactive: 0.0674
TRIM24 C56 (UniProt O15164)	inactive: 0.0454
KDM6A C384 (UniProt O15550)	inactive: 0.257
TRAFD1 C267 (UniProt O14545)	inactive: 0.282

The list continues.

Target | log2 ratio of iodoacetamide-alkyne labeling
KDM6A C960 (UniProt O15550) | inactive: 0.0999
RNMT C73 (UniProt O43148) | inactive: 0.607
HAT1 C27 (UniProt O14929) | inactive: 0.201
UniProt O15042_C563 | inactive: -0.182
IPO5 C420 (UniProt O00410) | inactive: 0.232
UniProt O14950_C109 | inactive: 0.246
GTPBP1 C669 (UniProt O00178) | active: 1.13
SMCHD1 C897 (UniProt A6NHR9) | inactive: 0.408
ZNF609 C178 (UniProt O15014) | inactive: 0.382
NVL C391 (UniProt O15381) | inactive: 0.0922
DNM1L C367 (UniProt O00429) | inactive: 0.986
CASK C633 (UniProt O14936) | inactive: 0.956
PFAS C1338 (UniProt O15067) | inactive: 0.118
ITGB1BP1 C60 (UniProt O14713) | inactive: 0.357
TRIM24 C629 (UniProt O15164) | inactive: 0.316
TAF4 C867 (UniProt O00268) | inactive: 0.549
XPO1 C119 (UniProt O14980) | inactive: 0.411
GNPAT C650 (UniProt O15228) | inactive: 0.728
PGRMC1 C129 (UniProt O00264) | inactive: 0.0627
